We go through three compounds from PubChem BioAssay AID254 (DTP/NCI, 2004).

In the assay the test system is L1210 leukemia iv in BDF1 mice, survival T/C. The experiment in a line: NCI In Vivo Anticancer Drug Screen. Data for tumor model L1210 Leukemia (intravenous) in B6D2F1 (BDF1) mice. Particulars: higher T/C = longer survival. The procedure:
The antitumor activity of compounds was measured in mice bearing transplantable tumors. Survival or tumor size were measured and the results are expressed as the measurement made in the treated group (T) divided by the measurement made in the vehicle treated control group (C). The tumor model used in this assay is L1210 Leukemia (intravenous) in B6D2F1 (BDF1) mice

Structures are written as SMILES. The list does not hold the whole screen: it gathers tests that were run many times, whatever their T/C, doses with no T/C, and many T/C values between a quarter and a half above the control. Other doses and runs of a compound stand elsewhere. T/C: endpoint of the treated group in % of that of the vehicle group. Some doses have a count of surviving animals in place of a T/C: the source holds a T/C of zero for them, seemingly a mark for toxic or unscored doses. Some survivor counts are full or nearly so, which does not show that the dose was tolerated: the source hardly ever lists a survival T/C far under the control, and the zero likely stands for such cases as well. Counts of survivors are from the toxicity check (mostly the fifth day) where no day follows; animals may have died later. Schedules are NCI's codes, read here as Q, the interval in days (D) or hours (H), X, the number of doses. Where survival is the endpoint, this PubChem deposit counts one and a half times the control or more as active, and values a quarter to a half above the control carry no call in these data; other NCI protocols may use other cut-offs. Some entries were tested several times; their values stand side by side, smallest first. Signs of the kind (2×) give the number of equal values in this list. Some schedule codes hold Z or #, which are not explained here.

On to `COc1cc([C@@H]2c3cc4c(cc3[C@@H](OC3OC5COC(C)OC5C(O)C3O)[C@H]3COC(=O)[C@H]23)OCO4)cc(OC)c1O` (stereo not given in full), for which the T/C was 128 % of control (T/C endpoint: mean survival time, dose: 18.0 mg/kg/injection, schedule: Q04DX003 (ip), vehicle: saline) and 143 % of control (T/C endpoint: mean survival time, dose: 27.0 mg/kg/injection, schedule: Q04DX003 (ip), vehicle: saline).

As to `CC1CCC(NC(=O)N(CCCl)N=O)CC1` (stereo not given), the T/C (T/C endpoint: mean survival time, dose: 3.2 mg/kg/injection, schedule: Q01DX001 (ip), vehicle: other) was 100, 109 (2×), 110, 112, 113, 115 (3×), 121, 125, 126, 130 % of control (2×); the T/C (T/C endpoint: mean survival time, dose: 5.4 mg/kg/injection, schedule: Q01DX001 (oral), vehicle: other) is 131 % of control; the T/C (T/C endpoint: mean survival time, dose: 6.0 mg/kg/injection, schedule: Q01DX001 (ip), vehicle: other) is 116, 129, 130, 131 (2×), 141, 142, 146, 148, 150, 151 (3×), 160 % of control; the T/C (T/C endpoint: mean survival time, dose: 10.0 mg/kg/injection, schedule: Q01DX001 (ip), vehicle: saline with Tween-80, evaluated on day 3) is on record as 134, 190, 193 % of control; the T/C (T/C endpoint: mean survival time, dose: 10.0 mg/kg/injection, schedule: Q01DX001 (ip), vehicle: saline with Tween-80, evaluated on day 60) is 134 and 193 % of control; the T/C (T/C endpoint: mean survival time, dose: 13.0 mg/kg/injection, schedule: Q01DX001 (ip), vehicle: other) is 151, 183, 186, 195, 197, 225 (2×), 237, 239, 248, 275, 285, 293, 347 % of control. For the same compound, the T/C is 200, 204, 273, 307, 321 % of control (T/C endpoint: mean survival time, dose: 16.0 mg/kg/injection, schedule: Q01DX001 (ip), vehicle: other); 183, 253, 290, 522 % of control (T/C endpoint: mean survival time, dose: 20.0 mg/kg/injection, schedule: Q01DX001 (ip), vehicle: saline with Tween-80, evaluated on day 3); 183, 253, 522 % of control (T/C endpoint: mean survival time, dose: 20.0 mg/kg/injection, schedule: Q01DX001 (ip), vehicle: saline with Tween-80, evaluated on day 60); 374, 429, 441, 554, 648 % of control (T/C endpoint: mean survival time, dose: 24.0 mg/kg/injection, schedule: Q01DX001 (ip), vehicle: other, evaluated on day 45); 516, 632, 660, 694 % of control (T/C endpoint: mean survival time, dose: 24.0 mg/kg/injection, schedule: Q01DX001 (ip), vehicle: other, evaluated on day 60); 389 and 566 % of control (T/C endpoint: mean survival time, dose: 24.0 mg/kg/injection, schedule: Q01DX001 (oral), vehicle: other, evaluated on day 45). Further, the T/C runs as follows: (T/C endpoint: mean survival time, dose: 24.0 mg/kg/injection, schedule: Q01DX001 (oral), vehicle: other, evaluated on day 60) 362, 418, 543 % of control; (T/C endpoint: mean survival time, dose: 27.0 mg/kg/injection, schedule: Q01DX001 (ip), vehicle: other) 377, 422, 440, 448, 530, 556, 560, 562, 571, 600, 608, 630, 633 (2×), 650, 661, 709 % of control; (T/C endpoint: mean survival time, dose: 30.0 mg/kg/injection, schedule: Q01DX001 (ip), vehicle: saline with Tween-80, evaluated on day 3) 172, 288, 647, 653, 1020 % of control; (T/C endpoint: mean survival time, dose: 30.0 mg/kg/injection, schedule: Q01DX001 (ip), vehicle: saline with Tween-80, evaluated on day 60) 288 and 653 % of control; (T/C endpoint: mean survival time, dose: 36.0 mg/kg/injection, schedule: Q01DX001 (ip), vehicle: other, evaluated on day 45) 615, 676, 697, 698, 745, 752, 817, 882 % of control; (T/C endpoint: mean survival time, dose: 36.0 mg/kg/injection, schedule: Q01DX001 (ip), vehicle: other, evaluated on day 60) 121, 810, 906, 911 % of control. Also, the T/C runs as follows: (T/C endpoint: mean survival time, dose: 40.0 mg/kg/injection, schedule: Q01DX001 (ip), vehicle: other) 232, 590, 637, 676 % of control; (T/C endpoint: mean survival time, dose: 40.0 mg/kg/injection, schedule: Q01DX001 (ip), vehicle: saline with Tween-80, evaluated on day 3) 144, 633, 845, 909, 1070 % of control; (T/C endpoint: mean survival time, dose: 40.0 mg/kg/injection, schedule: Q01DX001 (ip), vehicle: saline with Tween-80, evaluated on day 60) 633 and 909 % of control; (T/C endpoint: mean survival time, dose: 45.0 mg/kg/injection, schedule: Q01DX001 (ip), vehicle: other) 580, 585, 803, 860 % of control; (T/C endpoint: mean survival time, dose: 50.0 mg/kg/injection, schedule: Q01DX001 (ip), vehicle: other) 107, 117, 150, 154 % of control; (T/C endpoint: mean survival time, dose: 50.0 mg/kg/injection, schedule: Q01DX001 (ip), vehicle: saline with Tween-80, evaluated on day 3) 109, 772, 848, 873, 1080 % of control. The T/C is, setting by setting: (T/C endpoint: mean survival time, dose: 50.0 mg/kg/injection, schedule: Q01DX001 (ip), vehicle: saline with Tween-80, evaluated on day 60) 772 and 848 % of control; (T/C endpoint: mean survival time, dose: 54.0 mg/kg/injection, schedule: Q01DX001 (ip), vehicle: other, evaluated on day 45) 261, 275, 345, 487, 504, 552, 558, 566, 585, 625, 634, 642, 654, 720, 732, 746, 795, 829, 852 % of control; (T/C endpoint: mean survival time, dose: 54.0 mg/kg/injection, schedule: Q01DX001 (ip), vehicle: other, evaluated on day 60) 93, 570, 712, 724 % of control; (T/C endpoint: mean survival time, dose: 60.0 mg/kg/injection, schedule: Q01DX001 (ip), vehicle: other) 153, 171, 212, 264, 630 % of control; (T/C endpoint: mean survival time, dose: 75.0 mg/kg/injection, schedule: Q01DX001 (ip), vehicle: other) 109, 115, 332, 364 % of control; (T/C endpoint: mean survival time, dose: 100.0 mg/kg/injection, schedule: Q01DX001 (ip), vehicle: other) 117, 131, 183, 187 % of control. Besides, the T/C is 165, 168, 330, 588 % of control (T/C endpoint: mean survival time, dose: 125.0 mg/kg/injection, schedule: Q01DX001 (ip), vehicle: other); 236, 280, 464, 712 % of control (T/C endpoint: mean survival time, dose: 150.0 mg/kg/injection, schedule: Q01DX001 (ip), vehicle: other); 130 % of control (T/C endpoint: mean survival time, dose: 540.0 mg/kg/injection, schedule: Q01DX001 (ip), vehicle: saline with Tween-80). Besides, the survivor count by setting is: (T/C endpoint: mean survival time, dose: 30.0 mg/kg/injection, schedule: Q01DX001 (ip), vehicle: saline with Tween-80) 10 of 10; (T/C endpoint: mean survival time, dose: 40.0 mg/kg/injection, schedule: Q01DX001 (ip), vehicle: saline with Tween-80) 9 of 9; (T/C endpoint: mean survival time, dose: 50.0 mg/kg/injection, schedule: Q01DX001 (ip), vehicle: saline with Tween-80) 10 of 10.

Take `O=NN(CCCl)C(=O)NCCCl`: the T/C (T/C endpoint: mean survival time, dose: 3.7 mg/kg/injection, schedule: Q01DX001 (ip), vehicle: other) was 128 and 145 % of control; the T/C (T/C endpoint: mean survival time, dose: 15.0 mg/kg/injection, schedule: Q01DX001 (ip), vehicle: other) is listed as 194, 207, 223, 247, 265 % of control; the T/C (T/C endpoint: mean survival time, dose: 20.0 mg/kg/injection, schedule: Q01DX001 (ip), vehicle: other, evaluated on day 45) is recorded as 221, 239, 310 % of control; the T/C (T/C endpoint: mean survival time, dose: 20.0 mg/kg/injection, schedule: Q01DX001 (ip), vehicle: other, evaluated on day 60) was 287 and 331 % of control; the T/C (T/C endpoint: mean survival time, dose: 20.0 mg/kg/injection, schedule: Q01DX001 (ip), vehicle: saline + alcohol, evaluated on day 3) is listed as 279, 288, 299, 307, 414 % of control; the T/C (T/C endpoint: mean survival time, dose: 20.0 mg/kg/injection, schedule: Q01DX001 (ip), vehicle: saline + alcohol, evaluated on day 60) is 288 and 307 % of control. Moreover, the T/C (T/C endpoint: mean survival time, dose: 30.0 mg/kg/injection, schedule: Q01DX001 (ip), vehicle: saline + alcohol, evaluated on day 3) was 323, 334, 422, 429, 445 % of control; the T/C (T/C endpoint: mean survival time, dose: 30.0 mg/kg/injection, schedule: Q01DX001 (ip), vehicle: saline + alcohol, evaluated on day 60) is 323 and 422 % of control; the T/C (T/C endpoint: mean survival time, dose: 40.0 mg/kg/injection, schedule: Q01DX001 (ip), vehicle: other, evaluated on day 45) is on record as 339, 443, 564 % of control; the T/C (T/C endpoint: mean survival time, dose: 40.0 mg/kg/injection, schedule: Q01DX001 (ip), vehicle: other, evaluated on day 60) is 390 and 460 % of control; the T/C (T/C endpoint: mean survival time, dose: 40.0 mg/kg/injection, schedule: Q01DX001 (ip), vehicle: saline + alcohol, evaluated on day 3) is given as 330, 368, 395, 404, 427, 459 % of control; the T/C (T/C endpoint: mean survival time, dose: 40.0 mg/kg/injection, schedule: Q01DX001 (ip), vehicle: saline + alcohol, evaluated on day 60) was 330 and 405 % of control. The T/C is 361, 382, 478 % of control (T/C endpoint: mean survival time, dose: 50.0 mg/kg/injection, schedule: Q01DX001 (ip), vehicle: saline + alcohol, evaluated on day 3); 361 and 382 % of control (T/C endpoint: mean survival time, dose: 50.0 mg/kg/injection, schedule: Q01DX001 (ip), vehicle: saline + alcohol, evaluated on day 60); 232, 267, 308 % of control (T/C endpoint: mean survival time, dose: 60.0 mg/kg/injection, schedule: Q01DX001 (ip), vehicle: other, evaluated on day 45); 687 % of control (T/C endpoint: mean survival time, dose: 60.0 mg/kg/injection, schedule: Q01DX001 (ip), vehicle: other, evaluated on day 60); 149 % of control (T/C endpoint: median survival time, dose: 60.0 mg/kg/injection, schedule: Q## X001 (ip), vehicle: saline + alcohol).
